{"source": "PubChem BioAssay AID1273", "about": "(Columbia University Molecular Screening Center, 2008)", "note": "Hit rate of the full screen: of about 130,000 compounds, about 1,200 (0.92%) were called active. The inconclusive results got no clear call from the source; some entries with a clear call stand among them for comparison.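 How the source made its calls: active means inhibition above the mean plus 3 SD, with well images judged a real hit on visual review (cut at about 60% in these data, passing the limit was not always enough); inconclusive means inhibition over the cutoff but images rejected on review; inactive means inhibition not above the cutoff.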"}
{"assay": "inhibitors of insulin promoter-driven GFP, primary screen, imaging, TRM-6 cells (human fetal islet line), eGFP reporter, cell count (AID 1273)", "details": "at 2 µM, hits give high values, reporter expression induced with tamoxifen"}
{"smiles": "N#C/C(=C/c1ccc(N2CCCCCC2)o1)c1ccc(Cl)cc1", "inhibition": "inactive: -53.9%"}
{"smiles": "COc1cc(C2NC(=O)NC(C)=C2C(=O)OC2CCCC(C)C2)ccc1O", "note": "(centres undefined)", "inhibition": "inconclusive: 72.7%"}
{"smiles": "CCOc1ccc(CSC(=N)N)cc1", "inhibition": "inactive: -33.3%"}
{"smiles": "Cc1cc(C)cc(OCC(O)CN2CCN(Cc3ccc4c(c3)OCO4)CC2)c1", "note": "(centres undefined)", "inhibition": "inconclusive: 71.4%"}
{"smiles": "Cn1nc(C(=O)Nc2nc3ccccc3[nH]2)ccc1=O", "inhibition": "inactive: 36.4%"}
{"smiles": "COc1cccc(-n2c(CN3CCN(Cc4ccccc4)CC3)nc3ccc([N+](=O)[O-])cc3c2=O)c1", "inhibition": "inactive: 3.45%"}
{"smiles": "CCOc1ccc(C(=O)OCC(=O)Nc2nc(OC)cc(OC)n2)cc1OCC", "inhibition": "inconclusive: 81.8%"}
{"smiles": "COc1ccc(C2C3=C(CCCC3=O)Nc3nc(SCc4ccccc4)nn32)cc1OC", "note": "(centres undefined)", "inhibition": "inactive: -30.8%"}
{"smiles": "Cc1ccc(Nc2nc(Oc3ccc(=O)[nH]n3)nc(N(C)C)n2)cc1", "inhibition": "inconclusive: 80%"}
{"smiles": "CC(C)(C)n1nnnc1CN1CCN(C(c2ccccc2)c2ccccc2)CC1", "inhibition": "inactive: 6.67%"}
{"smiles": "COC(=O)C(F)(F)Sc1c(C)[nH]c2ccccc12", "inhibition": "inconclusive: 75%"}
{"smiles": "Cc1ccc2[nH]c3c(NCc4ccco4)ncnc3c2c1", "inhibition": "active: 84.8%"}
{"smiles": "COc1ccc(C(=O)NC(C(=O)NCC2CCCO2)C(C)C)cc1", "note": "(centres undefined)", "inhibition": "active: 81.8%"}
{"smiles": "CS(=O)(=O)NCc1ccc(C(=O)NCCOc2ccccc2)cc1", "inhibition": "inconclusive: 75% [cytotoxic]"}
{"smiles": "O=C(N1CCN(c2ccccn2)CC1)C(Cl)(Cl)Cl", "inhibition": "inconclusive: 83.3%"}
{"smiles": "CC(C)(C)C(=O)NC(=S)NNC(=O)c1ccc(-c2ccccc2)cc1", "inhibition": "inconclusive: 81%"}
{"smiles": "O=C(O)Cc1ccc(NS(=O)(=O)c2ccccc2Cl)cc1", "inhibition": "inconclusive: 72.7%"}
{"smiles": "COc1ccc(Cc2nn[nH]n2)cc1", "inhibition": "inactive: 37.1%"}
{"smiles": "Clc1ccc2c(N/N=C/c3ccccc3Br)ccnc2c1", "inhibition": "inconclusive: 78.4%"}
{"smiles": "CSc1ccc(NC(=O)N2CC=C(n3c(=O)[nH]c4ccccc43)CC2)cc1", "inhibition": "active: 64.3%"}
{"smiles": "COC(=O)c1c(C)oc2ccc(NS(=O)(=O)c3cc(OC)ccc3OC)cc12", "inhibition": "inconclusive: 81.2%"}
{"smiles": "COc1ccc(N2C(=O)c3ccc(C(=O)OC(C)C)cc3C2=O)cc1", "inhibition": "inconclusive: 76.7%"}
{"smiles": "COc1ccc(OC)c(C2CC(c3c(-c4ccccc4)c4cc(Cl)ccc4[nH]c3=O)=NN2S(C)(=O)=O)c1", "note": "(centres undefined)", "inhibition": "inactive: -11.6%"}
{"smiles": "Cc1ccc(S(=O)(=O)N(CCC(=O)O)c2ccccc2)cc1", "inhibition": "inconclusive: 64.3%"}
{"smiles": "CCOC(=O)C1=NOC2C(=O)N(c3ccc(Cl)cc3Cl)C(=O)C12", "note": "(centres undefined)", "inhibition": "inconclusive: 72.7%"}
{"smiles": "N#Cc1sc2nc3c(cc2c1N)CCCC3", "inhibition": "inconclusive: 64.3%"}
{"smiles": "CC1CCCN(c2c([N+](=O)[O-])cc(C(=O)O)cc2[N+](=O)[O-])C1", "note": "(centres undefined)", "inhibition": "inactive: -21.4%"}
{"smiles": "CCN(CC)S(=O)(=O)c1ccc2c3c(cccc13)C(=O)N2", "inhibition": "inconclusive: 71.4%"}
{"smiles": "O=C(CCCCCn1c(=S)[nH]c2cc3c(cc2c1=O)OCO3)N1CCN(Cc2ccccc2)CC1", "inhibition": "inconclusive: 80%"}
{"smiles": "CC(NC(=O)Cc1cccs1)c1ccc2c(c1)OCO2", "note": "(centres undefined)", "inhibition": "inconclusive: 79.2%"}
{"smiles": "CC(C)c1nnc(NC(=O)C2CCCN2C(=O)Nc2ccccc2[N+](=O)[O-])s1", "note": "(centres undefined)", "inhibition": "inconclusive: 71.4%"}
{"smiles": "O=C(CNC(=S)NC(=O)c1cccc([N+](=O)[O-])c1)c1ccccc1", "inhibition": "inactive: 6.45%"}
{"smiles": "COC(=O)N/N=C\\c1cc(Br)ccc1OCc1ccccc1", "inhibition": "inconclusive: 64.3%"}
{"smiles": "O=C(NCCCn1ccnc1)Nc1ccc(Cl)cc1", "inhibition": "active: 76.9%"}
{"smiles": "C/C(Cn1nnc2ccccc21)=N\\NC(=O)c1cccc(Br)c1", "inhibition": "inactive: -65.6%"}
{"smiles": "COc1cccc(NC(=O)CNC(=O)c2ccc(F)cc2)c1", "inhibition": "inconclusive: 75%"}
{"smiles": "COc1ccc(CNC(=O)c2cnn3c(C(F)F)cc(C)nc23)cc1", "inhibition": "inconclusive: 75%"}
{"smiles": "O=C(NCCO)c1ccc2[nH]c3c(c2c1)CCCC3", "inhibition": "inconclusive: 73.3%"}
{"smiles": "c1cc(CNC2=NCCCCC2)ccn1", "inhibition": "inconclusive: 72.7%"}
{"smiles": "CCCCC[C@H](O)/C=C/[C@H]1C=CC(=O)[C@@H]1C/C=C\\CCCC(=O)O", "inhibition": "inactive: -4.76%"}
{"smiles": "CC(C)CCNC(=O)NC(=O)COC(=O)C1=COCCO1", "inhibition": "active: 77.8%"}
{"smiles": "CCOCCCNC(=O)c1cn(CC(C)C)c(=O)c2cc(OC)c(OC)cc12", "inhibition": "inconclusive: 71.4%"}
{"smiles": "CCN(CC)S(=O)(=O)c1ccc(C(=O)NCc2ccc3c(c2)OCO3)cc1", "inhibition": "active: 78.6%"}
{"smiles": "CC(NC(=O)c1ccco1)C(c1cccs1)N1CCN(c2ccccc2)CC1", "note": "(centres undefined)", "inhibition": "inconclusive: 70%"}
{"smiles": "Nc1ccccc1-c1nc2ccccc2[nH]1", "inhibition": "active: 93.8%"}
{"smiles": "Cc1[nH]c2ccccc2c1/C=N/NC(=O)Nc1ccccc1", "inhibition": "inconclusive: 75%"}
{"smiles": "Cn1c(=O)c2c(nc(SCC(=O)NCc3ccc4c(c3)OCO4)n2Cc2ccc(F)cc2)n(C)c1=O", "inhibition": "inconclusive: 86.2%"}
{"smiles": "Cc1ccc(NC(=O)c2oc3ccc(S(=O)(=O)N4CCC5(CC4)OCCO5)cc3c2C)cc1C", "inhibition": "inconclusive: 66.7%"}
{"smiles": "c1cn(CC2(Cn3ccnc3)COC2)cn1", "inhibition": "inconclusive: 80%"}
{"smiles": "Cc1ccc(CNc2ccc(N3CCOCC3)cc2)s1", "inhibition": "inconclusive: 75%"}
{"smiles": "CC(NC(=O)c1cc(-c2ccccc2)on1)c1ccccc1", "note": "(centres undefined)", "inhibition": "inconclusive: 75%"}
{"smiles": "CCOC(=O)c1cc(C(C)C)sc1NC(=O)COC(=O)CCS(=O)(=O)c1ccccc1", "inhibition": "active: 60%"}
{"smiles": "COc1ccc(-c2cn3cc([N+](=O)[O-])ccc3n2)cc1OC", "inhibition": "inconclusive: 71.4%"}
{"smiles": "CCOC(=O)c1c(-c2ccccc2)csc1NC(=S)NC", "inhibition": "inactive: 25.9%"}
{"smiles": "COc1ccc(-c2cc(C(F)(F)F)nc(SCCC(=O)N3CCCC3)n2)cc1", "inhibition": "inconclusive: 80%"}
{"smiles": "O=C(O)CC(c1ccccc1)n1cccc1", "note": "(centres undefined)", "inhibition": "inconclusive: 72.2%"}
{"smiles": "Cc1ccc(NS(=O)(=O)c2ccc3c(c2)NC(=O)CC(=O)N3)cc1C", "inhibition": "inconclusive: 77.8%"}
{"smiles": "Cc1ccc(C2C(=O)N(C3CCC(C)CC3)CC(=O)N2C2CCCC2)cc1", "note": "(centres undefined)", "inhibition": "active: 67.7%"}
{"smiles": "C/C(=N\\NC(=O)c1ccn(C)n1)c1ccc(NC(=O)C2CCCC2)cc1", "inhibition": "active: 71.4%"}
{"smiles": "Nc1ccccc1S(=O)(=O)c1ccccc1N", "inhibition": "inconclusive: 72.7%"}
{"smiles": "Nn1c(SC/C=C/c2ccccc2)nnc1-c1ccncc1", "inhibition": "inconclusive: 76.5%"}
{"smiles": "CCOC(=O)C1(C)/C(=N/Nc2ccccc2Cl)C(=O)C(=O)N1c1ccccc1", "note": "(centres undefined)", "inhibition": "inconclusive: 78.6%"}
{"smiles": "COc1ccc(C2N(C(=O)N3CCOCC3)CCN2S(=O)(=O)c2ccc(C)cc2)cc1", "note": "(centres undefined)", "inhibition": "inactive: 22.6%"}
{"smiles": "CCOc1ccc(C2NC(=O)C(C#N)=C(S)N2c2ccc(OC)cc2)cc1OC", "note": "(centres undefined)", "inhibition": "active: 80%"}
{"smiles": "C=CCN1C(=NC(=O)CCCC(=O)O)SC2CS(=O)(=O)CC21", "note": "(centres undefined)", "inhibition": "inconclusive: 71.4%"}
{"smiles": "COc1ccc(CCN2C(=O)CS/C2=N/NC(=O)c2ccccc2F)cc1OC", "inhibition": "inactive: 12.5%"}
{"smiles": "COc1ccc(C(=O)COc2ccc(NC(C)=O)cc2)cc1", "inhibition": "inconclusive: 84.6%"}
{"smiles": "CCc1ccc(N2CC(C(=O)OC)CC2=O)cc1", "note": "(centres undefined)", "inhibition": "inconclusive: 68.4%"}
{"smiles": "CC1=Nc2nc(N3CCCCC3)c(C#N)c3c4c(nc(c23)N1)N(c1ccc(C(C)C)cc1)C(=O)C4", "inhibition": "inactive: 4%"}
{"smiles": "Cc1c(N2C(=O)c3ccc(F)cc3C2=O)c(=O)n(-c2ccccc2)n1C", "inhibition": "inconclusive: 80%"}
{"smiles": "O=C(CSc1ncn[nH]1)Nc1cccc2ccccc12", "inhibition": "inconclusive: 90%"}
{"smiles": "O=C(NCc1ccc(Cl)cc1)C(=O)Nc1nccs1", "inhibition": "inactive: -8.33%"}
{"smiles": "CCCCNC(=S)N(C)/N=C/c1ccc(OCC(=O)Nc2c(C)cc(C)cc2C)c(OC)c1", "inhibition": "inconclusive: 100%"}
{"smiles": "C[C@H]1O[C@H]1P(=O)(O)O", "inhibition": "inconclusive: 71.4%"}
{"smiles": "Oc1cc2c(cc1C(c1ccc(Br)cc1)N1CCCC1)OCO2", "note": "(centres undefined)", "inhibition": "inactive: 30.2%"}
{"smiles": "COc1ccc(C(C)=O)cc1CSc1nc2ccccc2c(=O)n1-c1ccccc1C", "inhibition": "inactive: 31.2%"}
{"smiles": "Cc1ccc(N2C=Nc3ccc(C)c4nc(C)cc2c34)cc1", "inhibition": "active: 84.6%"}
{"smiles": "CC(C)NC(=O)CSc1nnc(-c2ccco2)n1N", "inhibition": "inconclusive: 65.6%"}
{"smiles": "CCCCCN1N=C(C)CC1=O", "inhibition": "active: 66.7%"}
{"smiles": "Cc1ccc(-c2nc3ccccc3c(=O)n2CCCN2CCOCC2)cc1", "inhibition": "inconclusive: 72.7%"}
{"smiles": "COc1ccc(Nc2c3c(nc4c(-c5ccccc5)c(C)nn24)CCC3)cc1", "inhibition": "active: 90.8%"}
{"smiles": "Nc1ccc2c(c1)CC(=O)c1ccccc1S2", "inhibition": "active: 76.9%"}
{"smiles": "CCc1ccc(Nc2ncc3c(n2)CC(c2ccco2)CC3=O)cc1", "note": "(centres undefined)", "inhibition": "inconclusive: 78.6%"}
{"smiles": "c1ccc2c(c1)OC(CCCN1CCCCC1)c1ccccc1S2", "note": "(centres undefined)", "inhibition": "inactive: -140%"}
{"smiles": "CC1(C)Cc2c(c(N3CCOCC3)nc3snc(N)c23)CO1", "inhibition": "inconclusive: 77.8%"}
{"smiles": "c1csc(-c2nc3ccccc3[nH]2)c1", "inhibition": "inconclusive: 82.3%"}
{"smiles": "COC(=O)CSc1nc2cc(C)ccc2cc1C#N", "inhibition": "inconclusive: 71.4%"}
{"smiles": "O=C(NC12CC3CC(CC(C3)C1)C2)N1CCN(S(=O)(=O)c2ccc(Cl)cc2)CC1", "inhibition": "inconclusive: 53.7%"}
{"smiles": "Cc1cc(C)nc(SCc2ccc(C(=O)NNC(=O)Nc3cccc(Cl)c3)cc2)n1", "inhibition": "inactive: -25%"}
{"smiles": "O=C(/C=C/c1ccco1)NC(=S)Nc1ccccc1N1CCOCC1", "inhibition": "inactive: -25.7%"}
{"smiles": "O=C1CC(c2ccccc2)Cc2nc(NC3CC3)ncc21", "note": "(centres undefined)", "inhibition": "inconclusive: 86.7%"}
{"smiles": "Cc1ccc(C2CC2C(=O)NNC(=S)Nc2cccc(C)c2)cc1", "note": "(centres undefined)", "inhibition": "inconclusive: 75%"}
{"smiles": "Cc1onc(-c2ccccc2)c1C(=O)N1CCN(C(=O)c2ccco2)CC1", "inhibition": "inconclusive: 76.2%"}
